Consider 1 substance from article PMC9668298.

Sequences of proteins named here, by UniProt entry; tags and fusion partners are left off. A change or cut given only in a name is not applied to a line headed by its entry.
UniProt P54609: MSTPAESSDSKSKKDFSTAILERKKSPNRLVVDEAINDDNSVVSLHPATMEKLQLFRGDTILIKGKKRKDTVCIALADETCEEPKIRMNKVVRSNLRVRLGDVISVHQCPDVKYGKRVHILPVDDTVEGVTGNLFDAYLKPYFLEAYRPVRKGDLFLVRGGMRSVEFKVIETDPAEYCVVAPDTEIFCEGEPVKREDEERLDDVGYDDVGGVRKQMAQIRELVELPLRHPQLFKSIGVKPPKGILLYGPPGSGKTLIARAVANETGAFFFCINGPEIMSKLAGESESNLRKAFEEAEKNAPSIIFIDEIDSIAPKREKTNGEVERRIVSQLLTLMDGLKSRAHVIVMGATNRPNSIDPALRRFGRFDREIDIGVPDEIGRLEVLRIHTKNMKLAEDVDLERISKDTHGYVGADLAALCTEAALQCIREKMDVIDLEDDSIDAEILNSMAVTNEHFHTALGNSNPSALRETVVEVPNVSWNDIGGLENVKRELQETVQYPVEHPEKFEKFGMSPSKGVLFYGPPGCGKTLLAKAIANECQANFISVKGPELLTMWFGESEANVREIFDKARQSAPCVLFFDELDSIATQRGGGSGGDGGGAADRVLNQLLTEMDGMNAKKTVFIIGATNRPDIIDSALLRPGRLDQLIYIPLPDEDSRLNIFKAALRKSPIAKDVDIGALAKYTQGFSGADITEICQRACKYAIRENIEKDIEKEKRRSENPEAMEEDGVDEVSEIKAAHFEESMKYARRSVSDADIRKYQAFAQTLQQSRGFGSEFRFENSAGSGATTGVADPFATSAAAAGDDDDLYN
UniProt P56766: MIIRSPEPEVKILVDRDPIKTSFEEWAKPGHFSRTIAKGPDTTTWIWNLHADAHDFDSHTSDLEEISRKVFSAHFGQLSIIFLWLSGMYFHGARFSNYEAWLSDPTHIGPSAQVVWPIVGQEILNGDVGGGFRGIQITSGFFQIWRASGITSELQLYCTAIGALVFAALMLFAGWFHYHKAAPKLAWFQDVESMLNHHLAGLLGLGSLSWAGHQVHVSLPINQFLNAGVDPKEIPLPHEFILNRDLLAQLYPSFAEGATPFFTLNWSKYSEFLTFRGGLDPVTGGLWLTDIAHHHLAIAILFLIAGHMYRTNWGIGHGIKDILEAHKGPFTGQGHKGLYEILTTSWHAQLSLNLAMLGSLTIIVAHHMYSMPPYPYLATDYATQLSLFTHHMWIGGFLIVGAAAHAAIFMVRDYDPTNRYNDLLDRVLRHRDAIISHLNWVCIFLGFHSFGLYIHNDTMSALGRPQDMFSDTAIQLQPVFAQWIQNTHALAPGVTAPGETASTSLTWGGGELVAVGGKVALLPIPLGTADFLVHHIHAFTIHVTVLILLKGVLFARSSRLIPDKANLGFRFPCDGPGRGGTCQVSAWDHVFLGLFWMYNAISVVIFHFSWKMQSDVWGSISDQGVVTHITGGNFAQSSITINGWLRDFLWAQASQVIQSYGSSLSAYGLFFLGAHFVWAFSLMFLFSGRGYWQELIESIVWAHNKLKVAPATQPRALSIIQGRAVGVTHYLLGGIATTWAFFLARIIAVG

No constants are given. Whether binding was seen depends on the method and setting. In cells and extracts the contact can be indirect. Some binding calls cover weakened binding; strength is not graded here. For some assays here: Sequences can lack the tags named with a protein.

Assay [1] has as its target T1, SP2 (suppressor of ppi1 locus 2) with a C-terminal 6x Myc tag (Arabidopsis thaliana) (UniProt Q5PP51).
T1 sequence: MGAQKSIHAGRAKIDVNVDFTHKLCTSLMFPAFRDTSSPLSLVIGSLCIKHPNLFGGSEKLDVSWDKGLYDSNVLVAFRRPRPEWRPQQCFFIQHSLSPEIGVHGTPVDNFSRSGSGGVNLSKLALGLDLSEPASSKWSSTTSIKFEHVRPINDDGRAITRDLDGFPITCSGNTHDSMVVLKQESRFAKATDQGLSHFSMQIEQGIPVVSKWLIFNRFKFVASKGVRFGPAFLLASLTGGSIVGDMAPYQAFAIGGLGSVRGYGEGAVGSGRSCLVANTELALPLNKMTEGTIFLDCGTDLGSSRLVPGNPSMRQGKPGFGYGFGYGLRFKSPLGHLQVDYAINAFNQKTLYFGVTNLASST
In words: co-IP; SP2-6Myc transgenic seedlings (wild type as control) analyzed without protoplastation; anti-Myc resin; endogenous PsaA and PsbC detected by immunoblot.

In assay [2] the target is CDC48-Trap-HA (AtCDC48A E581Q, CDC48 mutant with stabilized substrate binding) (Arabidopsis thaliana) (UniProt P54609). Put plainly: co-IP; wild-type Arabidopsis protoplasts transfected with CDC48-Trap-HA (YFP-HA as control); anti-HA resin; IP buffer 25 mM tris-HCl pH 7.5, 150 mM NaCl, 1 mM EDTA, 1% Triton X-100; 4°C; endogenous PsaA and PsbC detected by immunoblot.

On to “PsaA (chloroplast-encoded photosystem I subunit) (from UniProt P56766 1-750)”, for which the binding result in assay [1] and in assay [2] was “binds” throughout.
